Test results taken from PubChem BioAssay AID652054 (National Center for Advancing Translational Sciences (NCATS), 2013).
The whole screen tested about 360,000 compounds, of which about 9,100 (2.5%) were called active. Inconclusive means that the source gave no clear call. Such entries were picked first, then a sample of the others. Cut-off read from the data, not from the text of the source: active = max response below about -50%; inconclusive = no clear call, values can overlap the other calls; inactive = above that.

Chains of the proteins cited; added tags and fusions are not shown.
UniProt P35462, whole entry, looked up: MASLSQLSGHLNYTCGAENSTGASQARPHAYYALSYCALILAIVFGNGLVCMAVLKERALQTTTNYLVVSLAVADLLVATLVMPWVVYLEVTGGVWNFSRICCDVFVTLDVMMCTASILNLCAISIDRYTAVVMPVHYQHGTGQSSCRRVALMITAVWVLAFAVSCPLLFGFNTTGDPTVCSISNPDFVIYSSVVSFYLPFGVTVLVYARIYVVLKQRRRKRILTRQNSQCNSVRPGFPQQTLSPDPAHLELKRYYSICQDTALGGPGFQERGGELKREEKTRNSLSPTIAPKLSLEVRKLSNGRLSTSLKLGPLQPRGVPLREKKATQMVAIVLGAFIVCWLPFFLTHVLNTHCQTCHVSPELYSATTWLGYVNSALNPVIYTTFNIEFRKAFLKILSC

Molecular target: D(3) dopamine receptor (Homo sapiens) (UniProt P35462)
Experiment: qHTS of D3 Dopamine Receptor Antagonist: qHTS
Details: D3R cells, DiscoveRx beta-arrestin luminescence, antagonist mode; active compounds read low
Procedure, shortened: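 Cells plated overnight at 1500 cells/well, then exposed to library compounds with dopamine controls for 90 minutes at 37 degrees C. DiscoveRx reagent added for 30–60 minutes at room temperature; luminescence read, quantitative HTS format.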
% is set by controls: 0 for no effect and ±100 for the full control effect.

Compound	max response, negative = inhibition
Cc1cc(C)cc(Nc2ccc(C(=O)O)cc2[N+](=O)[O-])c1	inconclusive: -38.2%
Cc1nccn1C[C@@H]1CCc2c(c3ccccc3n2C)C1=O	active: -79.1%
Cc1cc(C)nc(NCC(O)CNc2ccccc2Cl)n1 (configuration not stated)	inconclusive: -30.1%
Cc1cc(OCc2cc(C(=O)NCc3csc(C(C)C)n3)no2)cc(C)c1Cl	inactive: -10%
O=Cc1cc2ccccc2nc1SCc1ccc(Cl)cc1	inconclusive: -39%
C=CCN(CC=C)S(=O)(=O)c1ccc(NC(=S)NC(=O)C2CC2)cc1	inconclusive: -32.3%
Cc1ccc(S(=O)(=O)N2CCCC2C(=O)Nc2nc3c(s2)CCCC3)cc1 (configuration not stated)	inactive: 4.97%
COc1cccc2c(=O)n(CC(=O)N3CCCc4ccccc43)ccc12	inconclusive: -31.5%
O=C(c1cnn2c1NC(c1ccc(Br)cc1)CC2C(F)(F)F)N1CCN2CCCC2C1 (configuration not stated)	inactive: -27%
Cc1ccc(S(=O)(=O)Oc2ccccc2-c2ccccc2)cc1	inconclusive: -32.4%
CC(C)C[C@H](NC(=O)c1[nH]cnc1C(=O)N[C@@H](Cc1ccccc1)C(=O)OCc1ccccc1)C(=O)OC(C)(C)C	inconclusive: -43.4%
Cc1ccc(CNCC(=O)Nc2ccc(C)cc2Br)cc1	inconclusive: -34%
O=C(NCCCNCCCNC(=O)c1ccccn1)c1ccccn1	inconclusive: -43.3%
O=C(NC(c1ccccc1)c1ccccc1)c1ccccc1	inactive: 8.66%
CN(C)c1ccc(N/C=C/C(=O)C(C)(C)C)cc1	inactive: 13.3%
CCc1noc(C)c1C(=O)Nc1ccc(-c2nnc3n2CCCCC3)cc1	inactive: 22.3%
O=[N+]([O-])c1cc([N+](=O)[O-])c2cc3ccccc3nc2c1	active: -79.9%
CC(=O)NC(c1ccco1)c1ccc2cccnc2c1O (configuration not stated)	active: -62.2%
CC(=O)c1ccc(NC(=O)CN2CCC(C(=O)c3ccc(F)cc3)CC2)cc1	inconclusive: -43.8%
COc1ccccc1CC(=O)Nc1ccc2c(C)cc(=O)oc2c1	inconclusive: -41.3%
COc1ccc(S(=O)(=O)NCC(c2cccnc2)N2CCN(C)CC2)cc1C (configuration not stated)	inconclusive: -31.7%
O=C(c1ccc(OC2CCN(CCCc3ccccc3)CC2)cc1)N1CCCC1	inconclusive: -34.8%

Compound	max response, negative = inhibition
COCCNC(=O)CN1CCN(C(c2ccccc2)c2ccccc2)CC1	inconclusive: -32.5%
COc1cccc(-c2cc(=O)[nH][nH]2)c1	inconclusive: -49.1%
O=C1CCc2cc(S(=O)(=O)NCc3ccccc3Cl)ccc2N1	inconclusive: -32.3%
COc1ccc2cc(CN(CCc3ccccc3)Cc3nnnn3CC3CCCO3)c(=O)[nH]c2c1 (configuration not stated)	inactive: -27.7%
Cc1ccc(S(=O)(=O)NC(=O)C2(C)CCN2C(=O)Cc2cccs2)cc1 (configuration not stated)	inconclusive: -34.4%
CN1C[C@@H]2C(c3ccc(C(F)(F)F)cc3)C3(c4ccccc4)CC2(C3)[C@H]1c1ccccc1 (some centres not stated)	inconclusive: -34.1%
CCSc1n[nH]c(=S)s1	inconclusive: -43.7%
Cc1sc2nc(SCC(=O)NCCOCCO)n(C)c(=O)c2c1C	inconclusive: -33.3%
COCCN1C(=O)CN(S(C)(=O)=O)CC1(C)C(=O)Nc1c(C)cccc1C (configuration not stated)	inactive: 8.28%
COC(=O)[C@@]1(Cc2ccccc2)[C@H]2C(=O)N(C)C(=O)[C@H]2[C@H]2CN=C(SCc3ccccc3)N21	inconclusive: -42.8%
CCNC(=S)Nc1ccc(N(c2ccccc2)C(C)C)cc1	inactive: -23%
COc1cc(OC)c2c(-c3cccc(-c4ccc(C(C)=O)cc4)c3)cc(=O)oc2c1	inconclusive: -34.8%
CC1CN(S(=O)(=O)c2cccc(-c3csc(-c4ccccc4)n3)c2)CC(C)O1 (configuration not stated)	inconclusive: -33.8%
Cc1cc(C)nc(NS(=O)(=O)c2ccc(NC(=O)c3ccc4c(c3)OCO4)cc2)n1	inconclusive: -45.2%
CCCSc1nn2c(=O)c3ccccc3nc2s1	active: -50.6%
CN(C)CCC(=O)N1C/C(=C/c2ccccc2)C(=O)/C(=C\c2ccccc2)C1	active: -85.3%
O=C(CN1CCOCC1)N1CCN(c2nnc(-c3ccccc3)c3ccccc23)CC1	inconclusive: -35.9%
Cc1ccc(NC(=O)C(=O)NCc2ccc(/C=C(/C#N)C(=O)NCc3cccnc3)o2)cc1	inconclusive: -32%
Clc1ccc(Nc2nc(C3CC3)cs2)cc1	inconclusive: -30.5%
CCc1ccc(/C=N/n2c(C3CCCCC3)n[nH]c2=S)cc1	inconclusive: -49%
COc1ccc(C2CC(c3ccc(Br)cc3)=NN2C(=O)CSC2=NCCS2)cc1 (configuration not stated)	inactive: 7.92%
COc1ccc(OC)c(S(N)(=O)=O)c1	inconclusive: -46.1%

Given field by field: 3 of the compounds above
O=Cc1cc2ccccc2nc1SCc1ccc(Cl)cc1
  max response, negative = inhibition: inconclusive: -39%
C=CCN(CC=C)S(=O)(=O)c1ccc(NC(=S)NC(=O)C2CC2)cc1
  max response, negative = inhibition: inconclusive: -32.3%
Cc1ccc(S(=O)(=O)N2CCCC2C(=O)Nc2nc3c(s2)CCCC3)cc1 (configuration not stated)
  max response, negative = inhibition: inactive: 4.97%

Following part.

Compound	max response, negative = inhibition
CCC1(C)Cc2ccccc2-c2[nH]c(=S)[nH]c(=O)c21 (configuration not stated)	inconclusive: -35.4%
Cc1ccc2c(c1)nnn2C1CCN(S(=O)(=O)c2ccc(C(=O)N3CC(C)CC(C)C3)cc2)CC1 (configuration not stated)	inconclusive: -31.5%
Cc1ccc(NC2CCCN(C(=O)c3cc(C(C)C)[nH]n3)C2)cc1C (configuration not stated)	inconclusive: -30.7%
O=C(Cn1ccc(C(F)(F)F)n1)N/N=C/c1cccs1	inconclusive: -34.6%
COc1cccc(S(=O)(=O)Nc2ccc3c(c2)C(=O)N(C)C[C@H](OC)[C@H](C)CN(Cc2ccccc2F)[C@@H](C)CO3)c1	inactive: 2.78%
Cc1ccccc1NC(=S)N(C)Cc1cccs1	inconclusive: -41.8%
Cc1ccc(S(=O)(=O)N2CCOCC2)cc1NC(=O)CNC1CCCC1	inconclusive: -49.7%
CN(C)/C=N/NC(=O)C1Cc2c(ccc3ccccc23)O1 (configuration not stated)	inconclusive: -33.1%
S=C1SCN(CCc2ccccc2)CN1CCc1ccccc1	inactive: -23%
COc1ccc(-c2cnn3c(N)c(S(=O)(=O)C(C)(C)C)cnc23)cc1	inconclusive: -30%
O=C1NC2(CCCCCC2)N=C1c1ccc(Br)cc1	inconclusive: -36.4%
COc1cccc(NC(=O)CN(C)C(=O)c2cccnc2Nc2cccc(C(F)(F)F)c2)c1	inactive: 14.4%
c1ccc(OCCN2CCN(C(c3ccccc3)c3ccccc3)CC2)cc1	active: -89.5%
C/C(=N\NC(=O)c1nnn(-c2nonc2N)c1CN(C)c1ccccc1)c1cccc(O)c1	inactive: -14%
O=C(CCn1c(=O)oc2ccccc21)NCCN1CCc2ccccc2C1	inconclusive: -43.4%
CC12CCC(c3c1nc1ccccc1[n+]3[O-])C2(C)C (configuration not stated)	inactive: 15.3%
CCOc1ccccc1N=Cc1c(O)n(C)c(=O)n(C)c1=O	inactive: 34.2%
CCOC(=O)c1ccccc1NC(=O)c1ccccc1SC	inactive: 3.15%
COCCCn1cc(CN2CC(N3CCN(CCO)CC3)CS2(=O)=O)nn1 (configuration not stated)	inconclusive: -33.9%
O=S1(=O)CC2N=C(N(Cc3c(F)cccc3Cl)c3ccccc3F)SC2C1 (configuration not stated)	inconclusive: -42.1%
CN1CCN(C(=S)c2cn(CCOc3ccccc3F)c3ccccc23)CC1	inconclusive: -44.7%
COc1cccc(CNC(=O)COc2cc3c(c4oc(=O)cc(C)c24)CCC(C)(C)O3)c1	inactive: -4.15%

Compound	max response, negative = inhibition
COC(=O)C1CCN(CCCOc2ccc(CN3CCN(c4ccc([N+](=O)[O-])cc4)CC3)cc2)CC1	inconclusive: -43%
CC(C)(C)c1ccc(OCc2ccc(C(=O)N/N=C/c3ccc([N+](=O)[O-])cc3)o2)cc1	inactive: 32.3%
COc1ccc2sc(N(CCCN(C)C)C(=O)c3ccc(S(=O)(=O)N4CCCc5ccccc54)cc3)nc2c1	inconclusive: -37.3%
O=C(CN1CCN(c2ncccn2)CC1)N1CCc2ccccc21	active: -81.7%
CC(=O)Nc1cc(-c2ccccc2)cn2c(-c3cccc(C(C)=O)c3)cnc12	inactive: 0.988%
COc1ccccc1CNCc1cccc(Oc2ccccc2)c1	inactive: 0.667%
CCOc1ccc(OCc2cccc(C(=O)N3CCCCCC3)c2)cc1	inactive: 8.23%
O=C(NCc1ccccn1)C1CCCN(S(=O)(=O)c2cc(Cl)ccc2Cl)C1 (configuration not stated)	inactive: -20.5%
O=C(CNC(=O)c1ccc(Br)o1)OCC(=O)c1cccc([N+](=O)[O-])c1	inactive: 0.199%
O=C1c2ccccc2C(c2nnnn2-c2ccc3c(c2)OCCO3)N1CCCN1CCOCC1 (configuration not stated)	inconclusive: -36%
COc1cccc(C(=O)NC2CC3CCC(C2)N3Cc2ccccc2)c1 (configuration not stated)	active: -108%
Cc1nn(-c2ccccc2)c(N2CCCC2)c1/C=N/Nc1ccc(S(=O)(=O)Nc2ccccc2)cc1[N+](=O)[O-]	inconclusive: -49.5%
O=C(CCc1nc(-c2ccccc2F)no1)NC1CCN(Cc2ccccc2)CC1	active: -51.1%
CC(C)c1ccc(/C=C/C(=O)n2nnc3ccccc32)cc1	inconclusive: -47.6%
COC(=O)N1C(=O)[C@@](c2ccc(OC)cc2)(C(C)C)N1C(=O)OC	inconclusive: -36.3%
O=C1C(=O)c2ccccc2C(O)=C1c1cccc([N+](=O)[O-])c1	inconclusive: -39.2%
CC1(C2CC2)NC(=O)N(CC(=O)N2CCN(c3ccccc3F)CC2)C1=O (configuration not stated)	inactive: -14.5%
CCN1CCN(CCCN(Cc2ccco2)C(=S)Nc2ccc(Cl)c(C)c2)CC1	inactive: -28.5%
N#Cc1c(/N=C/c2cccs2)sc2c1CCCCC2	inconclusive: -39.6%
c1ccc(-c2nc(-c3ccco3)cs2)nc1	inconclusive: -35.2%
Cc1cc2c3ccccc3[nH]c(=O)n2n1	inconclusive: -35.8%
